According to paper PMC10121161:
Results are given in words; binding and its absence hold for the method and conditions named. Some binding calls cover weakened binding; strength is not graded here. Tags and fused reporters may be left off the sequences shown.

The chains behind the UniProt entries cited, without tags or fusion partners.
UniProt Q09065: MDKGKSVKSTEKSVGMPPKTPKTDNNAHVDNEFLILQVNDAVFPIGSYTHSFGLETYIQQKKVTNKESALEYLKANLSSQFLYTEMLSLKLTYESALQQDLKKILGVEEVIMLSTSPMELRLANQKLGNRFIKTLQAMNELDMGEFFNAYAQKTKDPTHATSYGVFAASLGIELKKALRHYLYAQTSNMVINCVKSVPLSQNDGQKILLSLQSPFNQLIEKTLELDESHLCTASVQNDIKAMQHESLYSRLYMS

Target: HisGST-HpUreF (Helicobacter pylori) (UniProt Q09065)
Assay: co-purification (Ni-chelating affinity chromatography); HisGST-HpUreF coexpressed with HpUreD (WT/variant) in E. coli; lysate loaded on HisTrap with 45 mM imidazole in 20 mM Hepes, 200 mM NaCl, 1 mM TCEP-HCl (pH 7.5); eluted with 300 mM imidazole

B1: HpUreD, untagged, from pHpUreH (protein, UniProt Q09067 1-265)
chain: MNTYAQESKLRLKTKIGADGRCVIEDNFFTPPFKLMAPFYPKDDLAEIMLLAVSPGMMRGDAQDVQLNIGPNCKLRITSQSFEKIHNTEDGFASRDMHIVVGENAFLDFAPFPLIPFENAHFKGNTTISLRSSSQLLYSEIIVAGRVARNELFKFNRLHTKISILQDEKPIYYDNTILDPKTTDLNNMCMFDGYTHYLNLVLVNCPIELSGVRECIEESEGVDGAVSETASSHLCVKALAKGSEPLLHLREKIARLVTQTTTQKV
With B1 the binding was “binds”.
